From paper PMC6115435
No constants are given. Whether binding was seen depends on the method and setting. In cells and extracts the contact can be indirect.

Protein sequences, listed by entry. Tags and fused reporters are not part of them.
UniProt Q86WV6: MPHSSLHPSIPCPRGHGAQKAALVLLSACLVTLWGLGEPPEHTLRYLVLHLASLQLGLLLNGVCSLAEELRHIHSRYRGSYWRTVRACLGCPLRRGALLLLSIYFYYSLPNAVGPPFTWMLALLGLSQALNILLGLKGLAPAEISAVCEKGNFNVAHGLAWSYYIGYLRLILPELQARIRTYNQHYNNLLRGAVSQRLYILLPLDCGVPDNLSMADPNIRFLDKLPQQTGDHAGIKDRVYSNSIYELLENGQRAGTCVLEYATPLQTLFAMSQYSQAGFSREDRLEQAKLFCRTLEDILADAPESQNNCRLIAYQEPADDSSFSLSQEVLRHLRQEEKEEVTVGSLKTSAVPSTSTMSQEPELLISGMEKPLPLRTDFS

Biological target: STING (STimulator of INterferon Genes) (human) (UniProt Q86WV6)
Test: co-IP; HEK293T cells transfected with overexpression plasmids (results: HEK293 with STING and Nrf2 overexpressed); Pierce IP lysis buffer; cleared lysates incubated overnight at 4 °C with an antibody against STING, then protein G Dynabeads for 2 h at 4 °C; glycine elution pH 2.5; western blotting

binding: no binding
B1: Nrf2 (Nuclear factor (erythroid-derived 2)-like 2) (protein, UniProt Q16236 1-605)
chain: MMDLELPPPGLPSQQDMDLIDILWRQDIDLGVSREVFDFSQRRKEYELEKQKKLEKERQEQLQKEQEKAFFAQLQLDEETGEFLPIQPAQHIQSETSGSANYSQVAHIPKSDALYFDDCMQLLAQTFPFVDDNEVSSATFQSLVPDIPGHIESPVFIATNQAQSPETSVAQVAPVDLDGMQQDIEQVWEELLSIPELQCLNIENDKLVETTMVPSPEAKLTEVDNYHFYSSIPSMEKEVGNCSPHFLNAFEDSFSSILSTEDPNQLTVNSLNSDATVNTDFGDEFYSAFIAEPSISNSMPSPATLSHSLSELLNGPIDVSDLSLCKAFNQNHPESTAEFNDSDSGISLNTSPSVASPEHSVESSSYGDTLLGLSDSEVEELDSAPGSVKQNGPKTPVHSSGDMVQPLSPSQGQSTHVHDAQCENTPEKELPVSPGHRKTPFTKDKHSSRLEAHLTRDELRAKALHIPFPVEKIINLPVVDFNEMMSKEQFNEAQLALIRDIRRRGKNKVAAQNCRKRKLENIVELEQDLDHLKDEKEKLLKEKGENDKSLHLLKKQLSTLYLEVFSMLRDEDGKPYSPSEYSLQQTRDGNVFLVPKSKKPDVKKN
